Results taken from publication PMC8550248.
These are yes or no findings as the source states them, for the method shown. In cells and extracts the contact can be indirect.

Key:
[1] = molecular target: endogenous wild-type p53 (human (endogenous in HCT116, U2OS, A375)) (UniProt P04637); experiment: co-IP; endogenous proteins, A375 lysate; IP with anti-p53 antibody, IgG control; Western blot
[2] = molecular target: endogenous wild-type p53 (human (endogenous in HCT116, U2OS, A375)) (UniProt P04637); experiment: co-IP; endogenous proteins, HCT116 lysate; IP with anti-p53 monoclonal antibody DO-1, IgG control; Western blot
[3] = molecular target: endogenous wild-type p53 (human (endogenous in HCT116, U2OS, A375)) (UniProt P04637); experiment: co-IP; endogenous proteins, U2OS lysate; IP with anti-p53 antibody, IgG control; Western blot

Measured: binding

B1: DiGeorge syndrome critical region 8 (DGCR8) (endogenous) (protein, UniProt Q8WYQ5 1-773)
chain: METDESPSPLPCGPAGEAVMESRARPFQALPREQSPPPPLQTSSGAEVMDVGSGGDGQSELPAEDPFNFYGASLLSKGSFSKGRLLIDPNCSGHSPRTARHAPAVRKFSPDLKLLKDVKISVSFTESCRSKDRKVLYTGAERDVRAECGLLLSPVSGDVHACPFGGSVGDGVGIGGESADKKDEENELDQEKRVEYAVLDELEDFTDNLELDEEGAGGFTAKAIVQRDRVDEEALNFPYEDDFDNDVDALLEEGLCAPKKRRTEEKYGGDSDHPSDGETSVQPMMTKIKTVLKSRGRPPTEPLPDGWIMTFHNSGVPVYLHRESRVVTWSRPYFLGTGSIRKHDPPLSSIPCLHYKKMKDNEEREQSSDLTPSGDVSPVKPLSRSAELEFPLDEPDSMGADPGPPDEKDPLGAEAAPGALGQVKAKVEVCKDESVDLEEFRSYLEKRFDFEQVTVKKFRTWAERRQFNREMKRKQAESERPILPANQKLITLSVQDAPTKKEFVINPNGKSEVCILHEYMQRVLKVRPVYNFFECENPSEPFGASVTIDGVTYGSGTASSKKLAKNKAARATLEILIPDFVKQTSEEKPKDSEELEYFNHISIEDSRVYELTSKAGLLSPYQILHECLKRNHGMGDTSIKFEVVPGKNQKSEYVMACGKHTVRGWCKNKRVGKQLASQKILQLLHPHVKNWGSLLRMYGRESSKMVKQETSDKSVIELQQYAKKNKPNLHILSKLQEEMKRLAEEREETRKKPKMSIVASAQPGGEPLCTVDV
no binding: [1] | [2] | [3]
